Where a name gives a salt, the structure may show the parent alone. The list shows a part of the results. This data set is noisy: repeats of one test often differ as much as different tests do.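 HEK293T cells were given each compound shortly before transfection with a reporter in which red mCherry is followed by the SARS-CoV-2 frameshift element and then GFP in the −1 frame, so GFP appears only after frameshifting.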

In the experiment the test system is HEK293T. Kind of experiment: percent viability (nuclei count) relative to control; higher = more viable cells. The note with it: 10 µM; 24 h.
Consider `CC1=C(C(=O)O)N2C(=O)[C@@H](NC(=O)[C@H](N)c3ccccc3)[C@H]2SC1`, for which the percent viability came to 349%.

For the molecule `Cc1ccccc1OCC(O)CN1CC=CCC1` (stereo not given) [tolpronine], the percent viability was found to be 131%.

Turning to `O=c1[nH]cnc2c1ncn2[C@@H]1O[C@H](CO)[C@@H](O)[C@H]1O`, the percent viability came to 254%.

With `COc1cccc(OC)c1C(=O)N[C@@H]1C(=O)N2[C@@H]1SC(C)(C)[C@@H]2C(=O)O`, the percent viability worked out at 149%.

With `CCCCCCCCCc1ccc(OCCOCCOCCOCCOCCOCCOCCOCCOCCO)cc1`, the percent viability was determined as 86.4%.

Regarding `CC(=O)OC(C)C[N+](C)(C)C` (stereo not given) [methacholine chloride], the percent viability is 127%.

As to `COc1ccc(CNc2nc(N3CCC[C@H]3CO)ncc2C(=O)NCc2ncccn2)cc1Cl` [avanafil], the percent viability is 71.4%.

As to `CCCCCOc1ccc(-c2ccc(-c3ccc(C(=O)N[C@H]4C[C@@H](O)[C@@H](O)NC(=O)[C@@H]5[C@@H](O)[C@@H](C)CN5C(=O)[C@H]([C@@H](C)O)NC(=O)[C@H]([C@H](O)[C@@H](O)c5ccc(O)cc5)NC(=O)[C@@H]5C[C@@H](O)CN5C(=O)[C@H]([C@@H](C)O)NC4=O)cc3)cc2)cc1` [Eraxis], the percent viability was determined as 203%.

Regarding `O=C(Nc1cccc2c(=O)cc(-c3nnn[nH]3)oc12)c1ccc(OCCCCc2ccccc2)cc1` [pranlukast], the percent viability amounted to 154%.

Regarding `Cc1[nH]c(=O)c(C#N)cc1-c1ccc2nccn2c1` [olprinone], the percent viability came out at 274%.

As to `NS(=O)(=O)c1cc2c(cc1Cl)NC(c1ccccc1)NC2=O` (stereo not given) [fenquizone], the percent viability came to 94.3%.

As to `O=C1NS(=O)(=O)c2ccccc21`, the percent viability amounted to 286%.

`NC(=O)Cc1cccc(C(=O)c2ccccc2)c1N` [nepafenac]: the percent viability came out at 242%.

With `CC(=O)Nc1ccc(O)cc1` [paracetamol], the percent viability came out at 128%.

`CCNC(=O)CCC/C=C\C[C@@H]1[C@@H](/C=C/[C@@H](O)CCc2ccccc2)[C@H](O)C[C@@H]1O` [bimatoprost]: the percent viability was found to be 301%.

For the molecule `O=C(O)c1cc2cc(Cc3cccnc3)ccc2o1` [furegrelate], the percent viability was determined as 99.7%.

Consider `O=c1[nH]c(=O)n(C2CCCO2)cc1F` (stereo not given) [tegafur], for which the percent viability was determined as 197%.

In the case of `CN1CCN2c3ccccc3Cc3ccccc3C2C1` (stereo not given) [Mianserin·HCl], the percent viability was 29.7%.

On to `O=c1[nH]cnc2c([C@@H]3N[C@H](CO)[C@@H](O)[C@H]3O)c[nH]c12` [forodesine], for which the percent viability amounted to 199%.

Consider `CN1CCCN(C(c2ccccc2)c2ccc(Cl)cc2)CC1` (stereo not given) [homochlorcyclizine], for which the percent viability was found to be 267%.

Regarding `CCOC(=O)O[C@]1(C(=O)COC(=O)CC)CC[C@H]2[C@@H]3CCC4=CC(=O)C=C[C@]4(C)[C@H]3[C@@H](O)C[C@@]21C` [prednicarbate], the percent viability came to 194%.

As for `CC(CNC1CCCCC1)OC(=O)c1ccccc1` (stereo not given) [hexylcaine], the percent viability was 48.7%.

As for `CCOC(=O)[C@H](CCc1ccccc1)N[C@@H](C)C(=O)N1CC2(C[C@H]1C(=O)O)SCCS2` [Spirapril], the percent viability came out at 287%.

Regarding `CC[N+](C)(C)c1cccc(O)c1` [edrophonium chloride], the percent viability amounted to 227%.

On to `CCCc1c(OCCCOc2cc(O)c(-c3ccc(F)cc3)cc2CC)cccc1Oc1ccccc1C(=O)O` [etalocib], for which the percent viability amounted to 131%.

Turning to `OCC(CO)N[C@H]1C[C@](O)(CO)[C@@H](O)[C@H](O)[C@H]1O` [voglibose], the percent viability was determined as 204%.

In the case of `Cc1nccn1CC1CCc2c(c3ccccc3n2C)C1=O` (stereo not given) [ondansetron], the percent viability was 238%.

`COc1ccc2c(c1)C(O)(CCCN(C)C)c1ccccc1S2` (stereo not given) [meprotixol]: the percent viability was 207%.

Turning to `O=CNc1ncc([N+](=O)[O-])s1` [forminitrazole], the percent viability stood at 183%.

`CNC(=O)[C@@H](NC(=O)[C@H](CC(C)C)[C@H](O)C(=O)NO)C(C)(C)C` [Marimastat]: the percent viability amounted to 199%.

As for `C=C(C)[C@@H]1CC[C@]2(C(=O)O)CC[C@]3(C)[C@H](CC[C@@H]4[C@@]5(C)CC[C@H](OC(=O)CC(C)(C)C(=O)O)C(C)(C)[C@@H]5CC[C@]43C)[C@@H]12` [bevirimat], the percent viability was found to be 73.4%.

As to `O=C(O)c1cccc(/C=C2/C[C@@H]3[C@@H](/C=C/[C@@H](O)C4CCCCC4)[C@H](O)C[C@@H]3O2)c1` [taprostene], the percent viability came to 137%.

Turning to `O=C1c2ccccc2S(=O)(=O)N1CCCN1CCN(c2ncccn2)CC1` [revospirone], the percent viability stood at 369%.

For `Cc1oc(-c2ccccc2)nc1CCC(=O)c1ccc(CC2SC(=O)NC2=O)cc1` (stereo not given) [darglitazone], the percent viability came to 233%.

Consider `CC(=O)N1CCC(c2ccc(C(=O)N=C(N)N)cc2C(F)(F)F)CC1`, for which the percent viability came to 336%.

`CC1(C)NC(=O)N(c2ccc([N+](=O)[O-])c(C(F)(F)F)c2)C1=O` [nilutamide]: the percent viability came to 262%.

`Nc1nc(=O)c2ncn([C@@H]3C[C@H](CO)[C@H]3CO)c2[nH]1` [lobucavir]: the percent viability worked out at 173%.

On to `CN1C(CSCC(F)(F)F)Nc2cc(Cl)c(S(N)(=O)=O)cc2S1(=O)=O` (stereo not given) [polythiazide], for which the percent viability turned out to be 265%.

In the case of `NC[C@H](O)c1ccc(O)c(O)c1`, the percent viability was 284%.

Take `N/C(CC(O)COc1cccc2ccccc12)=N/O` (stereo not given) [nadoxolol]: the percent viability was determined as 405%.

The values are drawn from the supplement of paper PMC8256030.
